From paper PMC10920922 come the findings set out here.

Construct, isoform or probe ends are uncertain for at least one entry.

The data set deals with GST-TaPIF4 (Triticum aestivum). The data set is described as follows: EMSA. As to conditions: EMSA: 20 uL, 10% glycerol, 0.5 mM EDTA, 7.5 mM MgCl2, 0.05% NP-40, 50 ng/uL poly(dI-dC); recombinant protein; protein details: N-terminal GST (pGEX-4T-2).

Take “CTCCCTCCGCTGCACCTGTGATTCTCAAGT (double strand) [TaMBF1c promoter E-box probe]”: the binding result is recorded as “binds”.
